Structures can show the parent of a compound that is named as a salt. Some entries repeat one wording, which the source may state once for all of them.
Assays:
ctDNA (calf thymus DNA) = experiment: Fluorimetric titration, Scatchard processing; assay type: binding; conditions: for I/I0 (fluorescence intensity of complex / starting intensity of compound): pH 7.0, calculated by Scatchard equation; for ratio n (bound compound/polynucleotide phosphate): pH 7.0, sodium cacodylate buffer
Description: (§1) Compound solutions were used for measurements in aqueous buffer (pH = 7, sodium cacodylate buffer, I = 0.05 mol dm^−3). Polynucleotides were purchased as noted: poly A-poly U, poly (dAdT)2 and calf thymus (ct)DNA (Sigma-Aldrich). Polynucleotides were dissolved in Na-cacodylate buffer, I = 0.05 mol dm^−3, pH = 7. The calf thymus ctDNA was additionally sonicated and filtered through a […]. Polynucleotide concentration was determined spectroscopically as the concentration of phosphates.
(§2) Fluorescence spectra were recorded on a Varian Cary Eclipse spectrophotometer at 25 °C using appropriate 1cm path quartz cuvettes. Fluorometric experiments were performed at pH = 7 (I = 0.05 mol dm^−3, sodium cacodylate buffer) by adding portions of polynucleotide solution into the solution of the studied compound. In fluorometric experiments, an excitation wavelength of λexc ≥ 300 nm was used to avoid the inner filter effect caused due to increasing absorbance of the polynucleotide. Emissions were determined in the range λem = 300–600 nm. Values for Ks obtained by processing titration data using the Scatchard equation [40], in most titrations have satisfactory correlation coefficients (≥0.98).

p(dAdT)2 (AT-DNA) = experiment: Fluorimetric titration, Scatchard processing; assay type: binding; conditions: for I/I0 (fluorescence intensity of complex / starting intensity of compound): p(dAdT)2, pH 7.0, calculated by Scatchard equation; for ratio n (bound compound/polynucleotide phosphate): p(dAdT)2, pH 7.0, sodium cacodylate buffer
Description: as §1, §2

poly A-poly U (AU-RNA) = experiment: Fluorimetric titration, Scatchard processing; assay type: binding; conditions: for I/I0 (fluorescence intensity of complex / starting intensity of compound): pH 7.0, calculated by Scatchard equation; for ratio n (bound compound/polynucleotide phosphate): pH 7.0, sodium cacodylate buffer
Description: as §1, §2

AT-DNA (poly (dAdT)2) = experiment: CD titration and thermal melting, binding mode; conditions: CD titrations and thermal melting, pH 7
AU-RNA (poly A-poly U) = experiment: CD titration and thermal melting, binding mode; conditions: CD titrations and thermal melting, pH 7
[1] = test system: SW620 (colorectal adenocarcinoma, metastatic); experiment: MTT proliferation assay, 72 h; assay type: cell-based, human
Description: The cell lines HeLa (cervical carcinoma), SW620 (colorectal adenocarcinoma, metastatic), A549 (lung adenocarcinoma), HepG2 (hepatocellular carcinoma) and HFF (human foreskin fibroblasts) were cultured as monolayers and maintained in Dulbecco’s modified Eagle medium (DMEM), supplemented with 10% fetal bovine serum (FBS), 2mM L-glutamine, 100 U/mL penicillin and 100 μg/mL streptomycin in a humidified atmosphere with 5% CO2 at 37 °C.
Cells were seeded onto 96-well microtiter plates at a seeding density of 3000 cells/well for carcinoma cell lines, and 5000 cells/well for normal human fibroblasts. The next day, cells were treated with test agents at five different concentrations (0.01–100 µM) and further incubated for 72 h. […] Following 72 h incubation, the MTT assay was performed and measured absorbances were transformed into percentage of cell growth as described previously. Results were obtained from three independent experiments.

Structure (SMILES)	I/I0 (fluorescence intensity of complex / starting intensity of compound) (ctDNA (calf thymus DNA))	ratio n (bound compound/polynucleotide phosphate) (ctDNA (calf thymus DNA))	I/I0 (fluorescence intensity of complex / starting intensity of compound) (p(dAdT)2 (AT-DNA))	ratio n (bound compound/polynucleotide phosphate) (p(dAdT)2 (AT-DNA))	I/I0 (fluorescence intensity of complex / starting intensity of compound) (poly A-poly U (AU-RNA))	ratio n (bound compound/polynucleotide phosphate) (poly A-poly U (AU-RNA))	binding mode to AT-DNA (AT-DNA (poly (dAdT)2))	binding mode to AU-RNA (AU-RNA (poly A-poly U))	fold stronger inhibitory effect compared to structural analogue 8 ([1]; printed 'to tumor cells', ratio matches SW620 IC50 values) [fold]	fold more active compared to monoamidoxime 19 ([1]; SW620 cells)
Cl.Cl.c1cc(C2=NCCN2)ccc1OCc1cn(-c2ccc(C3=NCCN3)cc2)nn1 [Compound 5, 1-(4-(4,5-Dihydro-1H-imidazol-2-yl)-phenyl]-4-((4-(4,5-dihydro-1H-imidazol-2-yl)phenyloxy)methyl]-1H-1,2,3-triazole dihydrochloride]	2.0	0.1	2.2	<0.1	2.0	0.7	bind inside the minor groove	intercalate		
c1cc(C2=NCCN2)c2ccn(Cc3cn(-c4ccc(C5=NCCN5)cc4)nn3)c2c1 [Compound 6, 1-((1-(4-(Dihydro-1H-imidazol-2-yl)phenyl)-1H-1,2,3-triazol-4-yl)methyl)-4-(dihydro-1H-imidazol-2-yl)-1H-indole dihydrochloride]	0.8	0.7	0.9	0.1	0.1	0.6	mixed binding mode, most probably minor groove binding accompanied with aggregate binding along the DNA backbone			
Cl.c1cnc2c(NCc3cn(-c4ccc(C5=NCCN5)cc4)nn3)cccc2c1 [Compound 8, 8-(((1-(4-(4,5-Dihydro-1H-imidazol-2-yl)phenyl)-1H-1,2,3-triazol-4-yl)methyl)amino)-quinoline hydrochloride]			2.3	0.5						
Cl.c1cnc2c(OCc3cn(-c4ccc(C5=NCCN5)cc4)nn3)cccc2c1 [Compound 9, 8-((1-(4-(4,5-Dihydro-1H-imidazol-2-yl)phenyl)-1H-1,2,3-triazol-4-yl)methyloxy)-quinoline hydrochloride]	0.5	0.3	0.2	0.1	<0.1	<0.1	mixed binding mode, most probably minor groove binding accompanied with aggregate binding along the DNA backbone		13	
Cl.O=c1cc(OCc2cn(-c3ccc(C4=NCCN4)cc3)nn2)c2ccccc2o1 [Compound 10, 4-((1-(4-(4,5-Dihydro-1H-imidazol-2-yl)phenyl)-1H-1,2,3-triazol-4-yl)methyloxy)-coumarin hydrochloride]			1.3	0.8			bind inside the minor groove	intercalate		
Cl.O=c1ccc2ccc(OCc3cn(-c4ccc(C5=NCCN5)cc4)nn3)cc2o1 [Compound 11, 7-((1-(4-(4,5-Dihydro-1H-imidazol-2-yl)phenyl)-1H-1,2,3-triazol-4-yl)methyloxy)-coumarin hydrochloride]	0.5	0.2	0.6	0.2	0.7	0.2	mixed binding mode, most probably minor groove binding accompanied with aggregate binding along the DNA backbone	intercalative binding mode		
N/C(=N\O)c1ccc(-n2cc(COc3cccc4ccc(/C(N)=N/O)nc34)nn2)cc1 [Compound 20, (Z)-N′-Hydroxy-8-((1-(4-((Z)-N′-hydroxycarbamimidoyl)phenyl)-1H-1,2,3-triazol-4-yl)methoxy)quinoline-2-carboximidamide]		0.2		0.1		0.1				around 9 fold

— PMC8625065 (Molecules, 2021)
